Measured values published in PubChem BioAssay AID248 (DTP/NCI, 2004).
The list shows only some results of the screen, not a fair sample: it is rich in T/C values a quarter to a half above the control, in often repeated tests (any T/C) and in doses without a T/C. Other doses and runs of a compound stand elsewhere. T/C is the treated group as % of the vehicle group. Some doses have a count of surviving animals in place of a T/C: the source holds a T/C of zero for them, seemingly a mark for toxic or unscored doses. Some doses without a T/C left all or most animals alive at the check, yet need not have been tolerated: survival well below the control is almost never listed, so the zero probably covers shortened survival too. Survivors were counted at the toxicity check, usually on the fifth day, unless a day is given; later deaths do not show. Schedule codes are those of the source, taken here to give the interval after Q, in days (D) or hours (H), and the number of doses after X.

Test system: L1210 leukemia ip in BDF1 mice, survival T/C
Experiment: NCI In Vivo Anticancer Drug Screen. Data for tumor model L1210 Leukemia (intraperitoneal) in B6D2F1 (BDF1) mice
Settings: T/C endpoint: mean survival time, higher T/C = longer survival
[1] = dose: 400.0 mg/kg/injection, schedule: Q04DX003 (ip), vehicle: saline with Tween-80

With `O=[N+]([O-])c1ccc2nccc(Cl)c2c1` the survivor count (dose: 100.0 mg/kg/injection, schedule: Q01DX009 (ip), vehicle: Klucel (hydroxypropylcellulose) (HPC)) was 0 of 6, the survivor count (dose: 200.0 mg/kg/injection, schedule: Q04DX003 (ip), vehicle: Klucel (hydroxypropylcellulose) (HPC)) was 0 of 6 and the survivor count (dose: 400.0 mg/kg/injection, schedule: Q04DX003 (ip), vehicle: Klucel (hydroxypropylcellulose) (HPC)) was 0 of 6.

For `O=NN(CS(=O)(=O)O)c1ccccc1`, the survivor count (dose: 400.0 mg/kg/injection, schedule: Q04DX003 (ip), vehicle: saline) was 0 of 6.

In the case of `CCN(CC)CCn1cnc2cc([N+](=O)[O-])ccc21`, the survivor count (dose: 80.0 mg/kg/injection, schedule: Q01DX001 (ip), vehicle: Klucel (hydroxypropylcellulose) (HPC)) is reported as 3 of 6, the survivor count (dose: 100.0 mg/kg/injection, schedule: Q01DX001 (ip), vehicle: Klucel (hydroxypropylcellulose) (HPC)) is reported as 0 of 6 and the survivor count (dose: 200.0 mg/kg/injection, schedule: Q01DX001 (ip), vehicle: Klucel (hydroxypropylcellulose) (HPC)) is reported as 1 of 6. The survivor count (dose: 400.0 mg/kg/injection, schedule: Q01DX001 (ip), vehicle: Klucel (hydroxypropylcellulose) (HPC)) was 0 of 6.

For `CCSc1nc(C)cc(Cl)n1`, the survivor count [1] was 4 of 6.

With `CC(C)(C)CC(C)(C)c1ccc(OCCOc2ccc(NS(=O)(=O)c3ccc(N)c([N+](=O)[O-])c3)cc2)cc1` the survivor count [1] was 6 of 6.

In the case of `CN1CCC23c4c5ccc(O)c4OC2C(=O)CCC3C1C5` (configuration not stated), the survivor count (dose: 150.0 mg/kg/injection, schedule: Q01DX001 (ip), vehicle: saline) is reported as 2 of 6 and the survivor count (dose: 300.0 mg/kg/injection, schedule: Q01DX001 (ip), vehicle: saline) is reported as 0 of 6.
